The list shows only some results of the screen, not a fair sample: it is rich in T/C values a quarter to a half above the control, in often repeated tests (any T/C) and in doses without a T/C. Other doses and runs of a compound stand elsewhere. T/C is the treated group as % of the vehicle group. Where survival is the endpoint, this PubChem deposit counts one and a half times the control or more as active, and values a quarter to a half above the control carry no call in these data; other NCI protocols may use other cut-offs. Schedule codes are those of the source, taken here to give the interval after Q, in days (D) or hours (H), and the number of doses after X. Some doses were run more than once; the values are given in rising order. Some schedules carry Z or #; the key to these is not given. Some T/C values carry the count of animals alive at the toxicity check (mostly the fifth day); where none is given, no animal had died by that day.
Test system: BDF1 mice, L1210 leukemia sc
Assay: NCI In Vivo Anticancer Drug Screen. Data for tumor model L1210 Leukemia (subcutaneous) in B6D2F1 (BDF1) mice
Settings: T/C endpoint: median survival time, higher T/C = longer survival
Outline: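 Expressed as T/C: measurement in compound-treated, tumor-bearing mice relative to vehicle-treated control mice, based on survival or tumor size.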

In the case of `O=P1(N(CCCl)CCCl)NCCCO1` (stereo not given), the T/C (dose: 8.4 mg/kg/injection, schedule: Q#A X Z (sc), vehicle: saline) is reported as 135 % of control, the T/C (dose: 12.5 mg/kg/injection, schedule: Q01DX009 (ip), vehicle: saline) is reported as 147 % of control and the T/C (dose: 14.0 mg/kg/injection, schedule: Q01DX Z (sc), vehicle: saline, evaluated on day 34) is reported as 131 % of control. For the same compound, the T/C (dose: 14.0 mg/kg/injection, schedule: Q01DX Z (sc), vehicle: saline, evaluated on day 40) was 130 % of control, the T/C (dose: 14.0 mg/kg/injection, schedule: Q01DX Z (sc), vehicle: saline, run until all animals had died) was 140 % of control and the T/C (dose: 23.0 mg/kg/injection, schedule: Q01DX Z (ip), vehicle: saline) was 135 % of control. The T/C (dose: 23.0 mg/kg/injection, schedule: Q01DX Z (oral), vehicle: saline) was 126 % of control, the T/C (dose: 23.0 mg/kg/injection, schedule: Q01DX Z (sc), vehicle: saline, evaluated on day 34) was 144 % of control and the T/C (dose: 23.0 mg/kg/injection, schedule: Q01DX Z (sc), vehicle: saline, run until all animals had died) was 130 % of control. For the same compound, the T/C (dose: 23.0 mg/kg/injection, schedule: Q02DX Z (sc), vehicle: saline) was 145 % of control, the T/C (dose: 25.0 mg/kg/injection, schedule: Q01DX009 (sc), vehicle: saline) was 129 and 137 % of control and the T/C (dose: 50.0 mg/kg/injection, schedule: Q01DX001 (sc), vehicle: saline, evaluated on day 7) was 144 % of control. The T/C (dose: 50.0 mg/kg/injection, schedule: Q01DX001 (sc), vehicle: saline, evaluated on day 40) was 144 % of control, the T/C (dose: 50.0 mg/kg/injection, schedule: Q07DX003 (sc), vehicle: saline, evaluated on day 7) was 136 % of control and the T/C (dose: 50.0 mg/kg/injection, schedule: Q07DX003 (sc), vehicle: saline, evaluated on day 40) was 133 % of control. The T/C (dose: 50.0 mg/kg/injection, schedule: Q07DX004 (sc), vehicle: saline, evaluated on day 7) was 137 % of control, the T/C (dose: 50.0 mg/kg/injection, schedule: Q07DX004 (sc), vehicle: saline, evaluated on day 40) was 133 % of control and the T/C (dose: 50.0 mg/kg/injection, schedule: Q08DX002 (sc), vehicle: saline, evaluated on day 7) was 130, 132, 133, 139 % of control. The T/C (dose: 50.0 mg/kg/injection, schedule: Q08DX002 (sc), vehicle: saline, evaluated on day 21) was 130 % of control, the T/C (dose: 50.0 mg/kg/injection, schedule: Q08DX002 (sc), vehicle: saline, evaluated on day 36) was 133 % of control and the T/C (dose: 50.0 mg/kg/injection, schedule: Q08DX002 (sc), vehicle: saline, evaluated on day 37) was 133 % of control. For the same compound, the T/C (dose: 50.0 mg/kg/injection, schedule: Q08DX002 (sc), vehicle: saline, evaluated on day 43) was 144 % of control, the T/C (dose: 65.0 mg/kg/injection, schedule: Q01DX001 (sc), vehicle: other) was 134 % of control and the T/C (dose: 65.0 mg/kg/injection, schedule: Q01DX001 (sc), vehicle: saline, run until all animals had died) was 142 % of control. For the same compound, the T/C (dose: 65.0 mg/kg/injection, schedule: Q07DX003 (sc), vehicle: saline, evaluated on day 6) was 138 % of control, the T/C (dose: 65.0 mg/kg/injection, schedule: Q07DX003 (sc), vehicle: saline, evaluated on day 7) was 145 % of control and the T/C (dose: 65.0 mg/kg/injection, schedule: Q07DX003 (sc), vehicle: saline, evaluated on day 30) was 145 % of control. For the same compound, the T/C (dose: 65.0 mg/kg/injection, schedule: Q07DX003 (sc), vehicle: saline, evaluated on day 36) was 138 % of control, the T/C (dose: 65.0 mg/kg/injection, schedule: Q07DX Z (sc), vehicle: saline) was 138 % of control and the T/C (dose: 65.0 mg/kg/injection, schedule: Q08DX002 (sc), vehicle: saline, evaluated on day 7) was 136 and 142 % of control. The T/C (dose: 65.0 mg/kg/injection, schedule: Q08DX002 (sc), vehicle: saline, evaluated on day 32) was 133 % of control, the T/C (dose: 65.0 mg/kg/injection, schedule: Q08DX002 (sc), vehicle: saline, evaluated on day 36) was 144 % of control and the T/C (dose: 100.0 mg/kg/injection, schedule: Q01DX001 (sc), vehicle: saline, evaluated on day 7) was 141 % of control. The T/C (dose: 100.0 mg/kg/injection, schedule: Q01DX001 (sc), vehicle: saline, evaluated on day 32) was 145 % of control, the T/C (dose: 100.0 mg/kg/injection, schedule: Q01DX001 (sc), vehicle: saline, evaluated on day 34) was 135 % of control and the T/C (dose: 100.0 mg/kg/injection, schedule: Q01DX009 (ip), vehicle: saline) was 147 % of control. For the same compound, the T/C (dose: 100.0 mg/kg/injection, schedule: Q01DX009 (sc), vehicle: saline) was 127 % of control, the T/C (dose: 100.0 mg/kg/injection, schedule: Q08DX002 (sc), vehicle: saline, evaluated on day 7) was 134 % of control and the T/C (dose: 100.0 mg/kg/injection, schedule: Q08DX002 (sc), vehicle: saline, evaluated on day 34) was 130 % of control. The T/C (dose: 108.0 mg/kg/injection, schedule: Q01DX Z (oral), vehicle: saline) was 133 % of control, the T/C (dose: 108.0 mg/kg/injection, schedule: Q01DX Z (sc), vehicle: saline, evaluated on day 36) was 143 % of control and the T/C (dose: 108.0 mg/kg/injection, schedule: Q01DX Z (sc), vehicle: saline, evaluated on day 60) was 145 % of control. For the same compound, the T/C (dose: 180.0 mg/kg/injection, schedule: Q01DX001 (sc), vehicle: saline, evaluated on day 7) was 142 and 145 % of control, the T/C (dose: 180.0 mg/kg/injection, schedule: Q01DX001 (sc), vehicle: saline, evaluated on day 30) was 145 % of control and the T/C (dose: 180.0 mg/kg/injection, schedule: Q01DX001 (sc), vehicle: saline, evaluated on day 32) was 138 % of control. For the same compound, the T/C (dose: 180.0 mg/kg/injection, schedule: Q01DX Z (sc), vehicle: saline, evaluated on day 34) was 133 % of control, the T/C (dose: 300.0 mg/kg/injection, schedule: Q01DX001 (sc), vehicle: saline, evaluated on day 7) was 142 % of control and the T/C (dose: 300.0 mg/kg/injection, schedule: Q01DX001 (sc), vehicle: saline, evaluated on day 32) was 138 % of control. For the same compound, the T/C (dose: 300.0 mg/kg/injection, schedule: Q01DX Z (oral), vehicle: saline) was 133 % of control, the T/C (dose: 300.0 mg/kg/injection, schedule: Q07DX003 (sc), vehicle: saline, evaluated on day 7) was 135 % of control and the T/C (dose: 300.0 mg/kg/injection, schedule: Q07DX003 (sc), vehicle: saline, evaluated on day 30) was 126 % of control [6 of 8 alive]. For the same compound, the T/C (dose: 300.0 mg/kg/injection, schedule: Q08DX003 (ip), vehicle: saline) was 147 % of control, the T/C (dose: 400.0 mg/kg/injection, schedule: Q01DX001 (sc), vehicle: saline, evaluated on day 7) was 141 % of control and the T/C (dose: 400.0 mg/kg/injection, schedule: Q01DX001 (sc), vehicle: saline, evaluated on day 37) was 138 % of control. For the same compound, the T/C (dose: 400.0 mg/kg/injection, schedule: Q07DX003 (sc), vehicle: saline, evaluated on day 7) was 131 % of control, the T/C (dose: 400.0 mg/kg/injection, schedule: Q07DX003 (sc), vehicle: saline, evaluated on day 40) was 127 % of control and the T/C (dose: 400.0 mg/kg/injection, schedule: Q07DX004 (sc), vehicle: saline) was 144 % of control. For the same compound, the T/C (dose: 400.0 mg/kg/injection, schedule: Q08DX002 (sc), vehicle: saline, evaluated on day 7) was 126, 130, 131 % of control, the T/C (dose: 400.0 mg/kg/injection, schedule: Q08DX002 (sc), vehicle: saline, evaluated on day 34) was 125 % of control [9 of 10 alive] and the T/C (dose: 400.0 mg/kg/injection, schedule: Q08DX002 (sc), vehicle: saline, evaluated on day 37) was 127 % of control [7 of 8 alive].

Reference: PubChem BioAssay AID250 (DTP/NCI, 2004)
